Reference: PubChem BioAssay AID1224830 (NIAID, 2016)

Purpose: 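Genes whose knock-down alters the TNF-alpha reporter response to LPS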 (primary screen)
System: human THP-1 monocytic leukaemia cells, TNF dual-luciferase reporter clone, PMA-differentiated to macrophage-like cells
Reagent: siRNA pool against human genes, 50 nM
Timing: LPS for 4 h, given about 3 days after siRNA transfection
Treatment: bacterial LPS (TLR4 ligand), 10 ng/ml
Read-out: 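Ratio of firefly to renilla light, scaled to the plate median and expressed as a robust z-score per replicate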
Direction: TNF reporter robust z-score: higher = stronger TNF reporter response to LPS
Hit rule: 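a well is active when its z-score exceeds 2.8 or falls below -1.5; control wells carry no call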
Shown is an unselected part of about 18,000 deposited reagents. About 2,900 of all reagents (16%) were called active. 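Calls are made per well; low scores hint the gene aids the LPS response, high scores that it dampens it.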 Unmarked entries are inactive. Repeated entries: four replicate wells of each siRNA pool.

| Target gene | TNF reporter robust z-score |
| --- | --- |
| CREB3 | -0.92 |
| CREB3 | -0.44 |
| CREB3 | -0.76 |
| CREB3 | -0.73 |
| EFNA4 | 0.22 |
| EFNA4 | 0.11 |
| EFNA4 | -0.17 |
| EFNA4 | -0.38 |
| STAP2 | -1.46 |
| STAP2 | -0.62 |
| STAP2 | -0.59 |
| STAP2 | -0.25 |
| IFT22 | -0.92 |
| IFT22 | 0.14 |
| IFT22 | -0.47 |
| IFT22 | -0.38 |
| DNAI1 | -0.09 |
| DNAI1 | 1.33 |
| DNAI1 | 1.94 |
| DNAI1 | 1.1 |
| FEM1A | -0.91 |
| FEM1A | -0.77 |
| FEM1A | -0.76 |
| FEM1A | -0.44 |

Laid out differently: results already given.
{"Target gene":"DNAI1","TNF reporter robust z-score":-0.09}
{"Target gene":"DNAI1","TNF reporter robust z-score":1.33}
{"Target gene":"DNAI1","TNF reporter robust z-score":1.94}
{"Target gene":"DNAI1","TNF reporter robust z-score":1.1}
{"Target gene":"FEM1A","TNF reporter robust z-score":-0.91}
{"Target gene":"FEM1A","TNF reporter robust z-score":-0.77}
{"Target gene":"FEM1A","TNF reporter robust z-score":-0.76}
{"Target gene":"FEM1A","TNF reporter robust z-score":-0.44}

The list goes on:
| Target gene | TNF reporter robust z-score |
| --- | --- |
| BCAR1 | 1.55 |
| BCAR1 | 0.37 |
| BCAR1 | -0.76 |
| BCAR1 | 1.75 |
| PKMYT1 | -0.43 |
| PKMYT1 | 2.8 (active) |
| PKMYT1 | 0.14 |
| PKMYT1 | 0.55 |
| HTR1F | -0.72 |
| HTR1F | -0.27 |
| HTR1F | -0.79 |
| HTR1F | -0.45 |
| GAPT | -0.01 |
| GAPT | 0.19 |
| GAPT | -0.06 |
| GAPT | -0.4 |
| OR2W1 | -1.13 |
| OR2W1 | -1.07 |
| OR2W1 | 0.36 |
| OR2W1 | 0.94 |
| ENDOG | -0.75 |
| ENDOG | 0.07 |
| ENDOG | -1.64 (active) |
| ENDOG | -1.08 |
